Among the data in PubChem BioAssay AID192 (DTP/NCI, 2004) are survivor count and T/C values, retold here.

Structures are written as SMILES. The list is a part of this screen's results and no random one: it is rich in T/C values a quarter to a half above the control, in often repeated tests (any T/C) and in doses without a T/C. Other doses and runs of a compound stand elsewhere. T/C gives the treated animals as a percentage of the vehicle group. Some entries give survivors of the animals treated and no T/C: the source files T/C as zero there, which appears to mark a toxic dose or a test without result, not a measured value. Some doses without a T/C left all or most animals alive at the check, yet need not have been tolerated: the source hardly ever lists a survival T/C far under the control, and the zero likely stands for such cases as well. Survivors were counted at the toxicity check, usually on the fifth day, unless a day is given; later deaths do not show. Schedule codes are those of the source, taken here to give the interval after Q, in days (D) or hours (H), and the number of doses after X. Some entries were tested several times; the results are listed from low to high. Where survival is the endpoint, this PubChem deposit counts one and a half times the control or more as active, and values a quarter to a half above the control carry no call in these data; other NCI protocols may use other cut-offs. Some T/C values carry the count of animals alive at the toxicity check (mostly the fifth day); without a count, all were alive then.

The subject of the experiment is BDF1 mice, B16 melanoma ip, median survival T/C. Description: NCI In Vivo Anticancer Drug Screen. Data for tumor model B16 Melanoma (intraperitoneal) in B6D2F1 (BDF1) mice. The conditions noted are these: T/C endpoint: median survival time, higher T/C = longer survival. The method, boiled down: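 Transplantable tumor model; survival or tumor size measured; reported as T/C, treated over vehicle control.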

The mark [1] stands for this setting: dose: 25.0 mg/kg/injection, schedule: Q01DX009 (ip), vehicle: saline.
Setting [2] is: dose: 50.0 mg/kg/injection, schedule: Q01DX009 (ip), vehicle: saline.
Setting [3] is: dose: 100.0 mg/kg/injection, schedule: Q01DX009 (ip), vehicle: saline.
[4] abbreviates: dose: 12.5 mg/kg/injection, schedule: Q01DX009 (ip), vehicle: saline with Tween-80.
Setting [5] is: dose: 6.25 mg/kg/injection, schedule: Q01DX009 (ip), vehicle: Klucel (hydroxypropylcellulose) (HPC).
[6] abbreviates: dose: 12.5 mg/kg/injection, schedule: Q01DX009 (ip), vehicle: Klucel (hydroxypropylcellulose) (HPC).
Setting [7] is: dose: 25.0 mg/kg/injection, schedule: Q01DX009 (ip), vehicle: Klucel (hydroxypropylcellulose) (HPC).
Where [8] appears, read: dose: 50.0 mg/kg/injection, schedule: Q01DX009 (ip), vehicle: Klucel (hydroxypropylcellulose) (HPC).
Setting [9] is: dose: 100.0 mg/kg/injection, schedule: Q01DX009 (ip), vehicle: Klucel (hydroxypropylcellulose) (HPC).
Where [10] appears, read: dose: 200.0 mg/kg/injection, schedule: Q01DX009 (ip), vehicle: Klucel (hydroxypropylcellulose) (HPC).
[11] abbreviates: dose: 50.0 mg/kg/injection, schedule: Q01DX009 (ip), vehicle: saline with Tween-80.
[12] abbreviates: dose: 100.0 mg/kg/injection, schedule: Q01DX009 (ip), vehicle: saline with Tween-80.
[13] abbreviates: dose: 200.0 mg/kg/injection, schedule: Q01DX009 (ip), vehicle: saline with Tween-80.
[14] abbreviates: dose: 200.0 mg/kg/injection, schedule: Q01DX009 (ip), vehicle: saline.
Setting [15] is: dose: 3.12 mg/kg/injection, schedule: Q01DX009 (ip), vehicle: Klucel (hydroxypropylcellulose) (HPC).

Turning to `CN(C)CC/C=C1\c2ccccc2Sc2ccc(C(F)(F)F)cc21`, the survivor count reads like this: (dose: 12.5 mg/kg/injection, schedule: Q01DX009 (ip), vehicle: saline) 4 of 10; under setting [1], 0 of 10; under setting [2], 0 of 10; under setting [3], 0 of 10.

As for `C[n+]1c2ccccc2cc2ccccc21`, the survivor count is 6 of 6 (dose: 3.13 mg/kg/injection, schedule: Q01DX009 (ip), vehicle: saline with Tween-80); 6 of 6 under setting [4]; 6 of 6 (dose: 25.0 mg/kg/injection, schedule: Q01DX009 (ip), vehicle: saline with Tween-80).

As to `CCCCCCC(=O)NC1=C(N2CC2)C(=O)C(NC(=O)CCCCCC)=C(N2CC2)C1=O`, the T/C is, setting by setting: under setting [5], 128 % of control [9 of 10 alive]; under setting [6], 149 % of control [9 of 10 alive]; under setting [7], 127 % of control; under setting [8], 135 and 136 % of control [7 of 10 alive]. The survivor count is 4 of 10 under setting [7], 10 of 10 under setting [8], 10 of 10 under setting [9] and 3 of 10 under setting [10].

Turning to `CCCCN(CCCC)CCNc1ccc(Cl)c2oc3cc(C)ccc3c(=O)c12`, the survivor count runs as follows: under setting [11], 10 of 10; (dose: 100.0 mg/kg/injection, schedule: Q04DX003 (ip), vehicle: saline with Tween-80) 10 of 10; (dose: 200.0 mg/kg/injection, schedule: Q04DX003 (ip), vehicle: saline with Tween-80) 10 of 10; (dose: 400.0 mg/kg/injection, schedule: Q04DX003 (ip), vehicle: saline with Tween-80) 9 of 10.

Take `CC(=O)NC(Cc1ccc(N(CCCl)CCCl)cc1)C(=O)O` (stereo not drawn): the T/C under setting [4] was 127 % of control. Also, under setting [11], the survivor count was 10 of 10.

Turning to `CC(C)=CCNc1ncnc2c1ncn2C1OC(CO)C(O)C1O` (stereo not drawn), the survivor count was 10 of 10 under setting [12]; 2 of 10 and 6 of 10 under setting [13]; 6 of 10 under setting [14].

In the case of `CCCC(=O)OCC1OC(n2cnc3c(=S)nc[nH]c32)C(OC(=O)CCC)C1OC(=O)CCC` (stereo not drawn), the survivor count under setting [12] is 9 of 10 and the survivor count under setting [13] is reported as 10 of 10.

For `Clc1sc2ccccc2c1Cl`, the survivor count reads like this: under setting [9], 9 of 10; under setting [10], 3 of 10.

Take `CCOC(=O)C1C(=O)C(CN(CCCl)CCCl)C(=O)C(C(=O)OCC)C1c1ccc(O)cc1` (stereo not drawn): the T/C under setting [15] was 131 and 144 % of control; the T/C under setting [6] was 129 % of control; the T/C under setting [7] is 146 and 147 % of control. Also, under setting [8], the survivor count is given as 10 of 10.

For `CN(C)CC/C=C1\c2ccccc2C(C)(C)c2ccc(Cl)cc21`, under setting [12], the survivor count is 4 of 6.

Turning to `Cc1cc(C(=O)NNCc2ccccc2)no1`, the survivor count under setting [15] was 10 of 10, the survivor count under setting [5] is on record as 10 of 10, the survivor count under setting [6] was 10 of 10 and the survivor count under setting [8] was 10 of 10.

Take `CC(C)C(=O)[O][Sn]([CH3])([CH3])[CH3]`: the survivor count is, setting by setting: (dose: 0.75 mg/kg/injection, schedule: Q01DX009 (ip), vehicle: saline) 9 of 10; (dose: 1.5 mg/kg/injection, schedule: Q01DX009 (ip), vehicle: saline) 6 of 10; (dose: 3.0 mg/kg/injection, schedule: Q01DX009 (ip), vehicle: saline) 0 of 10.

On to `CC[CH2][Pb]([CH2]CC)([CH2]CC)[N]1C(=O)c2ccccc2C1=O`, for which the survivor count was 10 of 10 under setting [6] and 2 of 10 under setting [7].

Turning to `C[C@H](N)C(=O)N[C@@H]1[C@H]2C(=C(O)C[C@@H](O)[C@@H]2O)C(=O)O[C@@H]1C`, the survivor count (dose: 2400.0 mg/kg/injection, schedule: Q01DX009 (ip), vehicle: saline) is given as 1 of 10.

In the case of `COC1=CC(=O)N(C(=O)C2CSC(C(CO)NC(=O)c3csc(/C=N/O)n3)=N2)C1` (stereo not drawn), the T/C under setting [10] is 127 % of control.

For the molecule `CCNc1nc(NCC)nc(OC)n1`, the T/C under setting [12] is 125 % of control.

As to `Oc1ccc(C2(c3ccc(O)cc3)CCCCC2)cc1`, the survivor count was 7 of 10 (dose: 25.0 mg/kg/injection, schedule: Q01DX009 (ip), vehicle: acetone) and 9 of 10 (dose: 100.0 mg/kg/injection, schedule: Q01DX009 (ip), vehicle: acetone).

Consider `CC(Br)C1(c2cccc([N+](=O)[O-])c2)OCCO1` (stereo not drawn), for which the survivor count was 5 of 10 and 7 of 10 (dose: 100.0 mg/kg/injection, schedule: Q04DX003 (ip), vehicle: Klucel (hydroxypropylcellulose) (HPC)); 7 of 10 (dose: 200.0 mg/kg/injection, schedule: Q04DX003 (ip), vehicle: Klucel (hydroxypropylcellulose) (HPC)); 0 of 10 (dose: 400.0 mg/kg/injection, schedule: Q04DX003 (ip), vehicle: Klucel (hydroxypropylcellulose) (HPC)).

As to `COC(=O)C(CCCN=C(N)N)NC(=O)OCc1ccccc1` (stereo not drawn), the survivor count (dose: 400.0 mg/kg/injection, schedule: Q04DX003 (ip), vehicle: saline) is on record as 0 of 7.

On to `C1CN1P1(N2CC2)=NP(N2CC2)(N2CC2)=NP(N2CC2)(N2CC2)=N1`, for which the T/C runs as follows: (dose: 0.25 mg/kg/injection, schedule: Q01DX009 (ip), vehicle: saline with Tween-80) 128 % of control; (dose: 4.0 mg/kg/injection, schedule: Q01DX009 (ip), vehicle: saline with Tween-80) 125 % of control; (dose: 4.0 mg/kg/injection, schedule: Q02DX009 (ip), vehicle: saline with Tween-80) 127 and 133 % of control; (dose: 8.0 mg/kg/injection, schedule: Q02DX009 (ip), vehicle: saline with Tween-80) 139 % of control. For the same molecule, the survivor count reads like this: (dose: 16.0 mg/kg/injection, schedule: Q02DX009 (ip), vehicle: saline with Tween-80) 10 of 10; (dose: 32.0 mg/kg/injection, schedule: Q02DX009 (ip), vehicle: saline with Tween-80) 10 of 10; (dose: 64.0 mg/kg/injection, schedule: Q02DX009 (ip), vehicle: saline with Tween-80) 8 of 10.

For `Cc1cccc(C)c1NS(=O)(=O)c1ccccc1`, the survivor count under setting [9] was 10 of 10.

Turning to `COc1ccccc1NC(=O)Nc1ccc(Nc2ccccc2)cc1`, under “dose: 400.0 mg/kg/injection, schedule: Q01DX009 (ip), vehicle: gum acacia”, the survivor count is 8 of 10.

In the case of `O=C(NCCCN1CC1)C(=O)NCCCN1CC1`, the T/C (dose: 0.78 mg/kg/injection, schedule: Q01DX009 (ip), vehicle: saline) was 127 % of control. Moreover, the survivor count by setting is: under setting [1], 0 of 10; under setting [2], 0 of 10; under setting [3], 0 of 10.

For `CN(C)C1CC1c1ccccc1` (stereo not drawn), the survivor count was 0 of 10 under setting [14] and 0 of 10 (dose: 400.0 mg/kg/injection, schedule: Q01DX009 (ip), vehicle: saline).

As for `Cc1ccc2nc(-c3cc(Br)ccc3O)c(-c3cc(Br)ccc3O)nc2c1`, the survivor count (dose: 400.0 mg/kg/injection, schedule: Q01DX009 (ip), vehicle: Klucel (hydroxypropylcellulose) (HPC)) is listed as 10 of 10.

Take `C[CH2][Pb]([CH2]C)([CH2]C)[N]1C(=O)c2ccccc2C1=O`: the survivor count is, setting by setting: under setting [5], 10 of 10; under setting [6], 0 of 10; under setting [7], 0 of 10.

With `CCCC1OC(=O)C(C)O1` (stereo not drawn), the survivor count under setting [10] is reported as 9 of 9.

For `CCCCn1ccnc1C`, the survivor count runs as follows: (dose: 100.0 mg/kg/injection, schedule: Q01DX009 (ip), vehicle: water) 0 of 10; (dose: 200.0 mg/kg/injection, schedule: Q01DX009 (ip), vehicle: water) 0 of 10.
